# Experimental data: PubChem BioAssay (EPA / NIEHS)
# Protein sequences, listed by entry. Tags and fused reporters are not part of them. Lines headed by an entry give the natural chain unless they say otherwise; changes in a name come on top.
# UniProt P19793: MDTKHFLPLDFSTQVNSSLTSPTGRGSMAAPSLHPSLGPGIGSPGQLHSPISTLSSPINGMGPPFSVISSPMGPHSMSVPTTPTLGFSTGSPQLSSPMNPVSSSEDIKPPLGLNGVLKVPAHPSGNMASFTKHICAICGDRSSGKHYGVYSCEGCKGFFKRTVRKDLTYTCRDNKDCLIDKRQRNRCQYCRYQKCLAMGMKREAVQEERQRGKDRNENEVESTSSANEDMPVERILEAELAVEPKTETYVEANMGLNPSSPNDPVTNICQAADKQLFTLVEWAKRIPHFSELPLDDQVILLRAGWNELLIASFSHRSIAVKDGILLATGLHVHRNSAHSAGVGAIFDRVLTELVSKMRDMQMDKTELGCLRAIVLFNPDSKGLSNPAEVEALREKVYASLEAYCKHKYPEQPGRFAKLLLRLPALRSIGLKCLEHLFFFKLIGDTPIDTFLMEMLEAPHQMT
# UniProt P04637, whole entry, looked up: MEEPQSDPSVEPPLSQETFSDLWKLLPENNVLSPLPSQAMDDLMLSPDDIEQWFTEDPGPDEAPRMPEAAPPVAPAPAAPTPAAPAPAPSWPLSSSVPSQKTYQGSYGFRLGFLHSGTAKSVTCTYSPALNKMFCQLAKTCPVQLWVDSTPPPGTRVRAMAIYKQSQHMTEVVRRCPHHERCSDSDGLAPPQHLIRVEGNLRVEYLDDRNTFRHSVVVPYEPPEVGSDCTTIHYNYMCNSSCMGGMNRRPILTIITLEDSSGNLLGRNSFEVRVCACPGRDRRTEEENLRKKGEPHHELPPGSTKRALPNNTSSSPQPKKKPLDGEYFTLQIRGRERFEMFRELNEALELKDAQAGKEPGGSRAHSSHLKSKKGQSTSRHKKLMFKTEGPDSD
# “And” between values parts separate entries of the source, which are not always exact repeats. Identical values can stand only once. This list was built around the results that the source calls inconclusive (neither active nor inactive); the mix of calls is not that of the screen. For some of these results: Potencies of inconclusive entries are doubtful fits and often do not repeat. Some compounds were tested as several samples or in several runs, with calls that do not always agree. The source made the active and inactive calls. How the source made its calls: active means hit-call score of the fitted dose curve at least 0.9, where 1 is the maximum; inconclusive means response in the unintended direction; inactive means score below 0.9.
# Key:
# [1] = biological target: Retinoic acid receptor RXR-alpha (Homo sapiens) (UniProt P19793); experiment: OT_NURR1_NURR1RXRa_0480: Odyssey Thera (OT) 8-hour HEK293T Protein Complementation Assay for Nurr1/retinoid X receptor (RXR) (AID 2283385)
# How it was run: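 Interaction of Nurr1 with RXRα read as reconstituted reporter fluorescence in a HEK293T fragment-complementation system, 8 h post-treatment; increase over DMSO baseline analysed.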
# [2] = TOX21_p53_BLA_p2_viability: Viability Assessment in the Tox21 HCT-116 p53 Agonism Beta-lactamase Assay, Phase 2 (AID 2283591);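 further: compound exposure lasted 16 h at 37 °C; actives lower the ATP signal meaning cytotoxicity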
# How it was run: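 Cytotoxicity readout: CellTiter-Glo ATP luminescence, 30 min at room temperature, after the beta-lactamase read. Cells were HCT116 exposed 16 h at 37C to compounds pin-transferred at 217-fold dilution from DMSO stocks.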
# [3] = biological target: Cellular tumor antigen p53 (Homo sapiens) (UniProt P04637); experiment: TOX21_p53_BLA_p2_ratio: Tox21 HCT-116 p53 Agonism Beta-lactamase Assay, Ratio, Phase 2 (AID 2283592)
# How it was run: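 Cleaved-to-uncleaved substrate ratio (460 vs 530 nm) measured in HCT116 cells with an inducible beta-lactamase reporter linked to p53 activity. Compounds incubated 16 h at 37C before 2 h room-temperature CCF4-AM loading.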
# [4] = TOX21_p53_BLA_p3_viability: Viability Assessment in the Tox21 HCT-116 p53 Agonism Beta-lactamase Assay, Phase 3 (AID 2283593);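 further: cells exposed to compound for 16 h before reading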
# How it was run: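 Cellular ATP was quantified by CellTiter-Glo luminescence, read after 30 min at room temperature. Beforehand, HCT116 cells (4000/well) received compound 5 h post-seeding, 217-fold diluted from DMSO, then incubated 16 h at 37C.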
# [5] = biological target: Cellular tumor antigen p53 (Homo sapiens) (UniProt P04637); experiment: TOX21_p53_BLA_p3_ratio: Tox21 HCT-116 p53 Agonism Beta-lactamase Assay, Ratio, Phase 3 (AID 2283596)
# How it was run: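 Cells were seeded at 4000/well, rested 5 h at 37C, then dosed with DMSO compound solutions (217-fold dilution) for 16 h. CCF4-AM substrate was loaded for 2 h at room temperature, and the 460/530 nm emission ratio was fitted for gain of signal versus DMSO.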
# [6] = biological target: Cellular tumor antigen p53 (Homo sapiens) (UniProt P04637); experiment: TOX21_p53_BLA_p5_ratio: Tox21 HCT-116 p53 Agonism Beta-lactamase Assay, Ratio, Phase 5 (AID 2283599)
# How it was run: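 Beta-lactamase reporter ratio (blue 460 nm over green 530 nm, 405 nm excitation) after 2 h CCF4-AM loading, in HCT-116 cells exposed 16 h at 37 C to compounds pinned at 217-fold dilution. Increases relative to DMSO baseline scored.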
# [7] = TOX21_p53_BLA_p5_viability: Viability Assessment in the Tox21 HCT-116 p53 Agonism Beta-lactamase Assay, Phase 5 (AID 2283600)
# How it was run: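 Viability is taken from cellular ATP content, measured by luciferase luminescence in the same wells after the beta-lactamase ratio read. Cells are seeded at 4000 per well and exposed to DMSO-dissolved compounds, diluted 217-fold, for 16 h.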
# [8] = biological target: Cellular tumor antigen p53 (Homo sapiens) (UniProt P04637); experiment: TOX21_p53_BLA_p4_ratio: Tox21 HCT-116 p53 Agonism Beta-lactamase Assay, Ratio, Phase 4 (AID 2283601)
# How it was run: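 Signal is the blue/green (460nm/530nm) ratio of cleaved versus uncleaved CCF4-AM substrate, read after 2 h substrate loading. Cells were HCT116 carrying the p53-responsive beta-lactamase reporter, dosed 16 h at 37C, 5% CO2; CellTiter-Glo measured in parallel.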
# [9] = Tanguay_ZF_120hpf_YSE_legacy: (Legacy) Oregon State University Tanguay Lab 120 Hour Post-fertilization zebrafish Assay for Yolk Sac Edema (AID 2283634);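 on AC50: actives raise the incidence of yolk sac edema above the DMSO baseline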
# How it was run: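 Readout: presence or absence of yolk sac edema at 120 hpf, fitted upward against DMSO controls. Exposure ran statically from 6 hpf in dechorionated embryos kept at 28C.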
# [10] = biological target: Retinoic acid receptor RXR-alpha (Homo sapiens) (UniProt P19793); experiment: OT_NURR1_NURR1RXRa_1440: Odyssey Thera (OT) 24-hour HEK293T Protein Complementation Assay for Nurr1/retinoid X receptor (RXR) (AID 2283386)
# How it was run: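 Gain in fluorescence, fitted relative to DMSO, reflects Nurr1–RXRα association in HEK293T cells after 24 h dosing. Bait and prey are each linked to a reporter-protein fragment that reassembles on interaction.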
# [11] = ATG_XTT_Cytotoxicity: Cytotoxicity Assessment in the Attagene TRANS-FACTORIAL HepG2 Assay (AID 2283584);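 on AC50: XTT signal for cell number as viability in transfected HepG2 cells; cells exposed to compound for 24 h before reading; active means loss of viability signal versus DMSO baseline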
# How it was run: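 Transfect HepG2 with GAL4-UAS reporter units, dose compound, incubate 24 h, then measure viable cell number by XTT. Fit concentration response against DMSO baseline.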
# [12] = TOX21_p53_BLA_p4_viability: Viability Assessment in the Tox21 HCT-116 p53 Agonism Beta-lactamase Assay, Phase 4 (AID 2283597);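 further: hits lower the luminescence signal meaning cytotoxicity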
# How it was run: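 Viability is taken as cellular ATP: after 16 h compound exposure of HCT116 cells and a 2 h room-temperature CCF4-AM substrate step, CellTiter-Glo reagent is added and luminescence is measured 30 min later.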
# [13] = Tanguay_ZF_120hpf_SNOU_legacy: (Legacy) Oregon State University Tanguay Lab 120 Hour Post-fertilization zebrafish Assay for Snout Malformation (AID 2283637)
# How it was run: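 Binary snout-malformation call at 120 hpf in wild-type 5D embryos, chorion removed by pronase, under static exposure from 6 hpf at 28C (0.64% DMSO). Embryos dying by 24 or 120 hpf excluded.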
# [14] = Tanguay_ZF_120hpf_JAW_legacy: (Legacy) Oregon State University Tanguay Lab 120 Hour Post-fertilization zebrafish Assay for Jaw Malformation (AID 2283638);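 on AC50: active means more embryos with jaw malformation than DMSO controls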
# How it was run: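 Static waterborne exposure of dechorionated wild-type (Tropical 5D) zebrafish from 6 to 120 hpf at 28C, 0.64% DMSO vehicle; 5uM trimethyltin chloride served as positive control. Jaw morphology recorded as binary at 120 hpf.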
# [15] = Tanguay_ZF_120hpf_EYE_legacy: (Legacy) Oregon State University Tanguay Lab 120 Hour Post-fertilization zebrafish Assay for Eye Malformation (AID 2283636);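 further: binary presence or absence of eye malformation scored by brightfield in 120 hpf larvae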
# How it was run: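 Binary brightfield scoring of eye defects at 120 hpf after static exposure from 6 hpf of single pronase-dechorionated wild-type embryos (28C, 0.64% DMSO). Non-mortality endpoints omitted where embryos died; fit vs DMSO.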
# [16] = LTEA_HepaRG_LDH_cytotoxicity: Cytotoxicity Assessment in the Life Technologies and Expression Analysis (LTEA) Assay (AID 2283563);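 further: LDH activity released into spent culture medium as a marker of cell death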
# How it was run: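 Human HepaRG hepatic cells are treated with test chemicals for 48 h at up to 100 uM in 0.5% DMSO. Cytotoxicity is scored from medium LDH against the vehicle control.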
structure (smiles),measurement,setting,value
C#C[C@]1(O)CC[C@H]2[C@@H]3CCC4=CC(=O)CC[C@@H]4[C@H]3CC[C@@]21CC,AC50,[1],inconclusive: 0.5 µM
same,outcome,[1],inactive
same,AC50,[2],inconclusive: 11.8 µM and inconclusive: 3.66 µM and inconclusive: 46.1 µM
same,outcome,[2],inactive
same,AC50,[3],inconclusive: 46.2 µM
same,AC50,[4],inconclusive: 23 µM
same,AC50,[5],inconclusive: 15.7 µM and inconclusive: 38.2 µM and inconclusive: 46.1 µM
same,AC50,[6],inconclusive: 46.2 µM and inconclusive: 23 µM
same,AC50,[7],inconclusive: 46.2 µM and inconclusive: 46.1 µM
same,AC50,[8],inconclusive: 46.1 µM
same,AC50,[9],inconclusive: 10.8 µM
c1ccc2[nH]c(-c3cscn3)nc2c1,AC50,[1],inconclusive: 2.85 µM and inconclusive: 50 µM
same,AC50,[10],inconclusive: 1.99 µM and inconclusive: 50 µM
COC(=O)c1c(Cl)c(Cl)c(C(=O)OC)c(Cl)c1Cl,AC50,[1],active: 68.6 µM
same,outcome,[1],inactive
same,outcome,[3],inactive
same,outcome,[5],inactive
same,outcome,[6],inactive
same,outcome,[7],inactive
CCC(C)(C)C1CCC(O)CC1 (configuration not stated),AC50,[1],inconclusive: 4.46 µM and inconclusive: 2.18 µM
same,outcome,[1],inactive
same,AC50,[10],inconclusive: 50 µM and inconclusive: 10.8 µM
same,AC50,[11],inconclusive: 10 µM
same,AC50,[2],inconclusive: 46.1 µM
same,outcome,[5],inactive
same,outcome,[8],inactive
COC(=O)CCC(=O)OC,AC50,[1],inconclusive: 50 µM
same,outcome,[1],inactive
same,AC50,[10],inconclusive: 50 µM
same,outcome,[10],inactive
same,AC50,[2],inconclusive: 46.1 µM and inconclusive: 47.1 µM
same,AC50,[3],inconclusive: 47.1 µM
same,AC50,[4],inconclusive: 47.1 µM
same,AC50,[5],inconclusive: 46.1 µM
same,AC50,[12],inconclusive: 0.00629 µM
same,AC50,[8],inconclusive: 85.9 µM
C=CN1CCCC1=O,AC50,[1],inconclusive: 29.5 µM
same,outcome,[1],inactive
same,AC50,[10],inconclusive: 50 µM
same,outcome,[4],inactive
same,AC50,[12],inconclusive: 45.6 µM
same,outcome,[7],inactive
same,outcome,[13],inactive
same,outcome,[14],inactive
CC(C)C(=O)Nc1ccc([N+](=O)[O-])c(C(F)(F)F)c1,AC50,[1],inconclusive: 0.952 µM
same,outcome,[1],inactive
same,AC50,[10],inconclusive: 2.09 µM and inconclusive: 7.32 µM
CC1=CC[C@H]2C[C@@H]1C2(C)C,AC50,[1],inconclusive: 50 µM
COc1cc(O)c(C(=O)c2ccccc2)cc1S(=O)(=O)O,AC50,[1],inconclusive: 1.17 µM
C#C[C@]1(O)CC[C@H]2[C@@H]3CCC4=CC(=O)CC[C@@H]4[C@H]3CC[C@@]21C,AC50,[1],inconclusive: 0.0923 µM
same,AC50,[10],inconclusive: 500 nM and inconclusive: 50 µM
Nc1ccc(S(=O)(=O)c2ccc(N)cc2)cc1,AC50,[1],inconclusive: 50 µM
same,outcome,[1],inactive
same,AC50,[10],inconclusive: 50 µM
same,outcome,[10],inactive
same,outcome,[12],inactive
same,AC50,[6],inconclusive: 46.1 µM and inconclusive: 23 µM
same,outcome,[7],inactive
same,AC50,[8],inconclusive: 0.118 nM and inconclusive: 23 µM
same,outcome,[8],inactive
same,AC50,[9],inconclusive: 190 µM
COC(=O)c1ccccc1C(=O)O,AC50,[1],inconclusive: 50 µM
same,outcome,[1],inactive
same,AC50,[3],inconclusive: 46.1 µM
same,AC50,[4],inconclusive: 0.86 µM
same,AC50,[6],inconclusive: 46.1 µM
same,AC50,[8],inconclusive: 46.1 µM
same,AC50,[15],inconclusive: 202 µM
O=C(O)c1ccccc1C(=O)OCc1ccccc1,AC50,[1],inconclusive: 2.31 µM
same,outcome,[1],inactive
same,AC50,[16],inconclusive: 0.00863 µM
same,outcome,[11],inactive
same,AC50,[12],inconclusive: 46.1 µM
same,outcome,[8],inactive
same,AC50,[15],inconclusive: 42.2 µM
same,AC50,[14],inconclusive: 11.4 µM
CCOc1ccc2[nH]cc(C(=O)NCc3ccccc3)c(=O)c2n1,AC50,[1],inconclusive: 1.94 µM and inconclusive: 50 µM
same,AC50,[10],inconclusive: 9.92 µM
COc1cccc([C@H](O)C2CCN(CCc3ccc(F)cc3)CC2)c1OC,AC50,[1],inconclusive: 5 µM
same,outcome,[1],inactive
same,outcome,[2],inactive
same,AC50,[3],inconclusive: 46.1 µM
same,AC50,[5],inconclusive: 74.8 µM
same,outcome,[12],inactive
same,AC50,[8],inconclusive: 82.9 µM
same,AC50,[9],active: 44.9 µM
same,AC50,[13],active: 45.8 µM
Cc1ccc(C(C)(C)C)c(O)c1,AC50,[1],active: 75 µM
same,outcome,[1],inactive
same,AC50,[10],active: 78.7 µM
same,outcome,[10],inactive
same,outcome,[3],inactive
same,AC50,[4],inconclusive: 44.9 µM
same,outcome,[5],inactive
same,AC50,[12],active: 43.2 µM and inconclusive: 44.9 µM
same,outcome,[7],inactive
same,AC50,[8],active: 69 µM
same,outcome,[9],inactive
same,AC50,[15],inconclusive: 28 µM
